Experimental data reported in article PMC5761851, “Application of a phenotypic drug discovery strategy to identify biological and chemical starting points for inhibition of TSLP production in lung epithelial cells” (PLoS ONE, 2018).

System: 125 representative kinases
Experiment: 125 kinase selectivity panel (overall)
Type: biochemical
Settings: 10 μM; 125 kinases
Method: Kinase selectivity was evaluated at Eurofins Pharma Discovery Services using a selection of 125 representative kinases tested at a concentration of 10 μM in duplicate (S3 Table). IC50 values for selected activities were further characterized at 9 duplicate concentrations. DNA-PK activity was determined at the SelectScreen® Biochemical kinase Profiling Service of Thermo Fisher Scientific.

Row | SMILES | number of kinases of the panel with % inhibition > 50
1 | Cn1cc(-c2cccc(-c3nc(C(=O)NC4C5CC6CC4CC(O)(C6)C5)c(N)nc3N)c2)cn1 (centres unmarked) [compound 4] | 9
2 | CS(=O)(=O)N1CCN(c2ccc(Nc3ncc(C(N)=O)c(NC4CC4)n3)cc2)CC1 [compound 5] | 89
